The supplement of paper PMC12889115
This is one part of the list. Values are raw readings; no control value is given beside them.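 Primary screen: polymyxin B was added at a level permeabilizing Salmonella outer membranes while sparing inner membranes. DMSO wells, both with and without polymyxin B, established maximum growth. Plate-to-plate variation meant each plate was ranked on its own, and the lowest-OD600 compounds were selected as hits.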

Test system: Salmonella enterica serovar Typhimurium SL1344
Assay: bacterial growth OD600 after 18 h with compound and polymyxin B; higher = more bacterial growth (less inhibition)
Details: 50 µM, Mueller-Hinton broth

SMILES | bacterial growth OD600 (polymyxin B 1 µg/mL) | bacterial growth OD600 (polymyxin B 0.75 µg/mL)
CCCCn1c(CN(C)Cc2sccc2C)cnc1S(=O)(=O)CC1CCC1 | 0.018 | –
CC(NC(=O)C1(N(C)CCc2ccccc2)Cc2ccccc2C1)c1ccncn1 (centres undefined) | – | 0.006
CCc1csc(CNC(=O)c2ccc(N3C[C@@H](C)O[C@@H](C)C3)nc2)n1 | 0.826 | –
CC#CCN1C(=O)NC(CCc2ccccc2)(C2CCN(Cc3ccc4c(c3)CCO4)CC2)C1=O (centres undefined) | – | 0.76
Cc1nccn1CCC(=O)NCc1cccnc1Oc1ccccc1 | 0.922 | –
Cc1nc(N2CCC(NCc3csc(-c4cccs4)n3)CC2)nc2ccc(F)cc12 | – | 0.754
COc1cccc(CCC(=O)N2CCc3c(cnc(C)c3CNS(=O)(=O)c3cccs3)C2)c1 | – | 0.785
COc1ccccc1OCc1cc(C(=O)N2C[C@@H](C)O[C@@H](C)C2)n[nH]1 | 0.834 | –
CSCCNC(=O)C1CCC(=O)N(Cc2cccc(C(F)(F)F)c2)C1 (centres undefined) | 0.956 | –

A run of entries taken from the entries so far, as a working copy:
SMILES | bacterial growth OD600 (polymyxin B 1 µg/mL) | bacterial growth OD600 (polymyxin B 0.75 µg/mL)
COc1cccc(CCC(=O)N2CCc3c(cnc(C)c3CNS(=O)(=O)c3cccs3)C2)c1 | – | 0.785
COc1ccccc1OCc1cc(C(=O)N2C[C@@H](C)O[C@@H](C)C2)n[nH]1 | 0.834 | –
